The text below walks through data of publication PMC8406168.

The chains behind the UniProt entries cited, without tags or fusion partners.
UniProt Q05322: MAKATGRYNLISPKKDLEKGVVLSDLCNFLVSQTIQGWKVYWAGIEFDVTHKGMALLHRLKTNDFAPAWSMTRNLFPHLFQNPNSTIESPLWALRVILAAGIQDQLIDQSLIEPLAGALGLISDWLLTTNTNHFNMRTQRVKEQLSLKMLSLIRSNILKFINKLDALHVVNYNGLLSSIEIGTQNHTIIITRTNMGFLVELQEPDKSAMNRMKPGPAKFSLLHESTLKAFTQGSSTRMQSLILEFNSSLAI

No constants are given. Whether binding was seen depends on the method and setting. In cells and extracts the contact can be indirect. A result given as binding can be weak or reduced; the word gives no strength.

In this test the target is HA-tagged Mayinga EBOV VP24 (Zaire ebolavirus (EBOV), strain Mayinga) (UniProt Q05322). Description: co-IP.

As for “emerin (endogenous, BSR-T7 cells) (from UniProt A0A1U7R6B2)”, the binding result is given as “binds”.
